These are yes or no findings as the source states them, for the method shown. In cells and extracts the contact can be indirect. Here binding means that the protein was enriched with, or labelled near, the bait; the list need not be complete.
Biological target: Human tubulin beta class IVa (TUBB4A) (human (endogenous in DU145)) (UniProt P04350)
Assay: affinity purification with mass spectrometry; DU145 lysate immunoprecipitated with TUBB4A antibody (ab222822, 1:200); Coomassie-stained gel bands excised, trypsin digested, LC-MS/MS

Chains of the proteins cited; added tags and fusions are not shown.
UniProt P04350: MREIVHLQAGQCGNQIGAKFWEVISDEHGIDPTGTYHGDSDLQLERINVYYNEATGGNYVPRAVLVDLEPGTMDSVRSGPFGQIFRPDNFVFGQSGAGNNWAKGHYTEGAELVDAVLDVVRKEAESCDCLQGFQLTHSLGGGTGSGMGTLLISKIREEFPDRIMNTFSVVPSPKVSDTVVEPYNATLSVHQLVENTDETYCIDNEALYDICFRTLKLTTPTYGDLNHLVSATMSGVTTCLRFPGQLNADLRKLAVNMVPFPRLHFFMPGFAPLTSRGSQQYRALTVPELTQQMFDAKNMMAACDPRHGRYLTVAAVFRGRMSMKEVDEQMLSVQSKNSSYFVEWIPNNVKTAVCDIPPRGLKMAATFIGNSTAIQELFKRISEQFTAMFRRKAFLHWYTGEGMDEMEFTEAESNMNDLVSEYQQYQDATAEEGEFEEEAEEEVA
UniProt P35579: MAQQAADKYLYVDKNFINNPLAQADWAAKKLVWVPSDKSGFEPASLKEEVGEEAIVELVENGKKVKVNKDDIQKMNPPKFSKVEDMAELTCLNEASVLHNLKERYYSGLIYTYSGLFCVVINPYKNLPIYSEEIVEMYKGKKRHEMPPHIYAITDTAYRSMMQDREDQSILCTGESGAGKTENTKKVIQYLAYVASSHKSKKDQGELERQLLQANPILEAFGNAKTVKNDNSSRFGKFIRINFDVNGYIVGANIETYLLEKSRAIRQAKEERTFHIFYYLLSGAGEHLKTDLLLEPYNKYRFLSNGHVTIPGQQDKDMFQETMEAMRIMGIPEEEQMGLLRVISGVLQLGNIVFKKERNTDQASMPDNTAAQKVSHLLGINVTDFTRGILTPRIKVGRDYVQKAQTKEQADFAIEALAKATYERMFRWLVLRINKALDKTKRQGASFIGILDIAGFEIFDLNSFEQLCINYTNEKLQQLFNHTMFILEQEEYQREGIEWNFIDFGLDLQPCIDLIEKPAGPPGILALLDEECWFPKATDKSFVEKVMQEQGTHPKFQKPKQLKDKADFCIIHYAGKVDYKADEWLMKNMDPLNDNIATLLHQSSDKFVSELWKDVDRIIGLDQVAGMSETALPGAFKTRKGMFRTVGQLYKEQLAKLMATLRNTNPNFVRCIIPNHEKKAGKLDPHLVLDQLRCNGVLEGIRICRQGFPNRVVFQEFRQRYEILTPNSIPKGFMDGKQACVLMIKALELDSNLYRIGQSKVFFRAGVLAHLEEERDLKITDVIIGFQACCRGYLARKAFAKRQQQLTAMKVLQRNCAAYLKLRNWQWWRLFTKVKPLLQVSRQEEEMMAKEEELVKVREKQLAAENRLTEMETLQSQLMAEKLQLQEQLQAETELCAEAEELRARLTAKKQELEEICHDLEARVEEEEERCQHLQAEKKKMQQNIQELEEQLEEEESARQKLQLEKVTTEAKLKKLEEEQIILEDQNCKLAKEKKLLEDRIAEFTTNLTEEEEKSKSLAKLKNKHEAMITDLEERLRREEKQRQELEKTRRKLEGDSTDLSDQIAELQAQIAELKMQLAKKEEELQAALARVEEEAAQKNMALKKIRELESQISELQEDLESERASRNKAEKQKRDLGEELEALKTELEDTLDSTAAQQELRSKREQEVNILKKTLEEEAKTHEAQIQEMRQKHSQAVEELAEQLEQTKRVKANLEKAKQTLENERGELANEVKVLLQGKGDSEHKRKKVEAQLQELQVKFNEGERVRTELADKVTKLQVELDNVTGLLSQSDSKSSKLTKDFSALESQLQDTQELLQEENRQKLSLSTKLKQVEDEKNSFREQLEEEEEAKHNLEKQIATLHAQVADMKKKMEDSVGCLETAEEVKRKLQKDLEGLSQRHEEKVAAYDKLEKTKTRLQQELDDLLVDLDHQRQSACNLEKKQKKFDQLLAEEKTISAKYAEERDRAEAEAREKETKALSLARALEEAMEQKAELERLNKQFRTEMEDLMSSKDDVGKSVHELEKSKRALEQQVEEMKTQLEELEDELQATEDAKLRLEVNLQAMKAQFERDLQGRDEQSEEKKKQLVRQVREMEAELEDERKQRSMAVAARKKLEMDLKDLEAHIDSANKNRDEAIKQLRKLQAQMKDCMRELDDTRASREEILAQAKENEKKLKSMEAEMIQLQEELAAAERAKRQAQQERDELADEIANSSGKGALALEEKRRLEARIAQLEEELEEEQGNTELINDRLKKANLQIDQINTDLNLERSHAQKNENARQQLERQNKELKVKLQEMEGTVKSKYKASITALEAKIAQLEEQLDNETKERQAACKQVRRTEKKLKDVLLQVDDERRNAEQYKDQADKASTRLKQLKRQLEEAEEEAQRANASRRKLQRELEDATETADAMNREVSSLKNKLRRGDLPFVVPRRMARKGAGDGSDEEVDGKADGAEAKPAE

binding: binds
Substance: MYH9 (myosin heavy chain 9) (from UniProt P35579 1-1960)

— article PMC9120517
